Measured values as given in doi:10.1101/145664.
These are yes or no findings as the source states them, for the method shown. Binding seen in cells or lysates may run through a third protein. Some binding calls cover weakened binding; strength is not graded here.

T1: Sla1 (S. cerevisiae) (UniProt P32790)
T1 sequence: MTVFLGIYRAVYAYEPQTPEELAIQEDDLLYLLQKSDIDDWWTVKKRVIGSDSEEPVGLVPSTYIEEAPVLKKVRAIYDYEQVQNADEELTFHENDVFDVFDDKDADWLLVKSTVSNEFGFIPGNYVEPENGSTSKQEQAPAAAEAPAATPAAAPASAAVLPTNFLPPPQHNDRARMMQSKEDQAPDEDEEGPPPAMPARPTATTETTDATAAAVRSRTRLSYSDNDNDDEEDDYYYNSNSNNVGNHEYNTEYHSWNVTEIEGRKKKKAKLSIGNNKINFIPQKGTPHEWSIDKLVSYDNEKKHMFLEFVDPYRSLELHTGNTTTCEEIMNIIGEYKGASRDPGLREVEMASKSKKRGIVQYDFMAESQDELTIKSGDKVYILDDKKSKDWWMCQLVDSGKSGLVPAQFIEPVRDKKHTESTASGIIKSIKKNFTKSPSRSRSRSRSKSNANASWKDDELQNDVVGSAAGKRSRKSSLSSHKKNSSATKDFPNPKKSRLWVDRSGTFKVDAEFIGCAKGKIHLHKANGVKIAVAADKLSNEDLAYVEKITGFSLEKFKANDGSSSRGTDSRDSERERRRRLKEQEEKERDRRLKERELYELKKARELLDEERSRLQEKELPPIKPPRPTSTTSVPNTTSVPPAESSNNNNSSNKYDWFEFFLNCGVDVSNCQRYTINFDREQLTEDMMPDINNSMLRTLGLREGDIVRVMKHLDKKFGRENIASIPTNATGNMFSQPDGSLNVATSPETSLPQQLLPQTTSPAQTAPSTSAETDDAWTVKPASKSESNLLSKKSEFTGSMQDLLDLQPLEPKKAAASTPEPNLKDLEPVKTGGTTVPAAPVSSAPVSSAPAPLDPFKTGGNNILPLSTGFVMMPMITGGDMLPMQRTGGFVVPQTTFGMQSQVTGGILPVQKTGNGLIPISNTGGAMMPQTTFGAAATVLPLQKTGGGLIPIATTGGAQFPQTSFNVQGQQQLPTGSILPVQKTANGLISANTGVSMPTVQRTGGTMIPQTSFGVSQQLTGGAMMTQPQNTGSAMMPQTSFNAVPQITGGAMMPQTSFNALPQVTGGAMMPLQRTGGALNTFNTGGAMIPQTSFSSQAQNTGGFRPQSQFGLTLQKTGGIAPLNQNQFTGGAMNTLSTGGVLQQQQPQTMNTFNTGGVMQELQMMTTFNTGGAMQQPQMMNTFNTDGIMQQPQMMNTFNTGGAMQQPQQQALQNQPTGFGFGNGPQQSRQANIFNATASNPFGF

T2: Sla1 (S. cerevisiae), P32790
T2 chain: T1 sequence

B1: Ede1 (protein, UniProt P34216 1-1381)
chain: MASITFRTPLSSQEQAFYNQKFHQLDTEDLGVVTGEAVRPLFASSGLPGQLLSQVWATVDIDNKGFLNLNEFSAALRMIAQLQNAPNQPISAALYESTPTQLASFSINQNPAPMQSGSATGNTNNTDIPALSSNDIAKFSQLFDRTAKGAQTVAGDKAKDIFLKARLPNQTLGEIWALCDRDASGVLDKSEFIMAMYLIQLCMSHHPSMNTPPAVLPTQLWDSIRLEPVVVNQPNRTTPLSANSTGVSSLTRHSTISRLSTGAFSNAASDWSLSFEKKQQFDAIFDSLDKQHAGSLSSAVLVPFFLSSRLNQETLATIWDLADIHNNAEFTKLEFAIAMFLIQKKNAGVELPDVIPNELLQSPALGLYPPNPLPQQQSAPQIAIPSRASKPSLQDMPHQVSAPAVNTQPTVPQVLPQNSNNGSLNDLLALNPSFSSPSPTKAQTVVQNNTNNSFSYDNNNGQATLQQQQPQQPPPLTHSSSGLKKFTPTSNFGQSIIKEEPEEQEQLRESSDTFSAQPPPVPKHASSPVKRTASTTLPQVPNFSVFSMPAGAATSAATGAAVGAAVGAAALGASAFSRSSNNAFKNQDLFADGEASAQLSNATTEMANLSNQVNSLSKQASITNDKKSRATQELKRVTEMKNSIQIKLNNLRSTHDQNVKQTEQLEAQVLQVNKENETLAQQLAVSEANYHAAESKLNELTTDLQESQTKNAELKEQITNLNSMTASLQSQLNEKQQQVKQERSMVDVNSKQLELNQVTVANLQKEIDGLGEKISVYLTKQKELNDYQKTVEEQHAQLQAKYQDLSNKDTDLTDREKQLEERNRQIEEQENLYHQHVSKLQEMFDDLSQRKASFEKADQELKERNIEYANNVRELSERQMNLAMGQLPEDAKDIIAKSASNTDTTTKEATSRGNVHEDTVSKFVETTVENSNLNVNRVKDDEEKTERTESDVFDRDVPTLGSQSDSENANTNNGTQSGNETANPNLTETLSDRFDGDLNEYGIPRSQSLTSSVANNAPQSVRDDVELPETLEERDTINNTANRDNTGNLSHIPGEWEATPATASTDVLSNETTEVIEDGSTTKRANSNEDGESVSSIQESPKISAQPKAKTINEEFPPIQELHIDESDSSSSDDDEFEDTREIPSATVKTLQTPYNAQPTSSLEIHTEQVIKYPAPGTSPSHNEGNSKKASTNSILPVKDEFDDEFAGLEQAAVEEDNGADSESEFENVANAGSMEQFETIDHKDLDDELQMNAFTGTLTSSSNPTIPKPQVQQQSTSDPAQVSNDEWDEIFAGFGNSKAEPTKVATPSIPQQPIPLKNDPIVDASLSKGPIVNRGVATTPKSLAVEELSGMGFTEEEAHNALEKCNWDLEAATNFLLDSA
B2: Yap1802 (protein, UniProt P53309 1-568)
chain: MSSLYTKLVKGATKIKMAPPKQKYVDPILSGTSSARGLQEITHALDIRLSDTAWTIVYKALIVLHLMIQQGEKDVTLRHYSHNLDVFQLRKISHTTKWSSNDMRALQRYDEYLKTRCEEYGRLGMDHLRDNYSSLKLGSKNQLSMDEELDHVESLEIQINALIRNKYSVSDLENHLLLYAFQLLVQDLLGLYNALNEGVITLLESFFELSIEHAKRTLDLYKDFVDMTEYVVRYLKIGKAVGLKIPVIKHITTKLINSLEEHLREETKRQRGEPSEPQQDRKPSTAISSTSSHNNNSNDKNKSIAQKKLEQIREQKRLLEQQLQNQQLLISPTVPQDAYNPFGSQQQDLNNDTFSFEPTQPQMTAQVPQPTANPFLIPQQQQQALQLTSASTMPQPSEIQITPNLNNQQTGMYASNLQYTPNFTGSGFGGYTTTENNAIMTGTLDPTKTGSNNPFSLENIAREQQQQNFQNSPNPFTLQQAQTTPILAHSQTGNPFQAQNVVTSPMGTYMTNPVAGQLQYASTGAQQQPQMMQGQQTGYVMVPTAFVPINQQQQQQQHQQENPNLIDI
B3: Lsb3 (protein, UniProt P43603 1-459)
chain: MGINNPIPRSLKSETKKAAKILASFVKPNQVFGADQVIPPDVLKRAKGLAIITILKAGFLFSGRAGSGVIVARLKDGTWSAPSAIAMAGAGAGGMVGIELTDFVFILNTQDAVKSFSEFGTITLGGNVSVSAGPLGRSAEAAASASAGGVAAVFAYSKSKGLFAGVSVEGSAIIERREANRKFYGDNCTAKMILSGRIRPPPAVDPLFRVLESRAFNYRPSNGGRGSFDDDEDDYYDDDDYYNDIPSSFSSTDASSTRPNTRSTRRRAQSGSRYTFDDDDDDDDYGTGYSRNSRLAPTNSGGSGGKLDDPSGASSYYASHRRSGTAQSRARSSRNRWADDEYDDYDDDYESGYRRGNGRDRTKDREVDDLSNRFSKSRISSASTPQTSQGRFTAPTSPSTSSPKAVALYSFAGEESGDLPFRKGDVITILKKSDSQNDWWTGRVNGREGIFPANYVELV
B4: End3, P39013 1-349 (protein)
chain: MPKLEQFEIKKYWQIFSGLKPIENKVNHDQVLPILYNSKLDSSVLNKIWFLADIDDDDNLDFEEFVICMRLIFDMVNKNISSVPDELPDWLIPGSKVNLIKERKKRKQIENADLPPKKEIKVDWYMSPDDLNQYEKIYNSCAKLTDGTITFNELSTKLSTKFFNISKTDLNKVWSLINPQNLPSIDRDPTFYFIHCLRQRNDLGAEIPASLPNSLAEVCNKKQLSYDLRSSQPPTKRKEEANEVDNLRDNGQNSSSDSSGSNVLSNEDSIKQKYASLTDDQVANMREQLEGLLNYKKSEKTQGGSKLSKRINIRSITDDLDNIEQQVEVLENYLNNKRHELQALQAEIN
B5: Sla1, P32790 1-1244 (protein)
chain: T1 sequence
B6: Sla2, P33338 1-968 (protein)
chain: MSRIDSDLQKALKKACSVEETAPKRKHVRACIVYTWDHQSSKAVFTTLKTLPLANDEVQLFKMLIVLHKIIQEGHPSALAEAIRDRDWIRSLGRVHSGGSSYSKLIREYVRYLVLKLDFHAHHRGFNNGTFEYEEYVSLVSVSDPDEGYETILDLMSLQDSLDEFSQIIFASIQSERRNTECKISALIPLIAESYGIYKFITSMLRAMHRQLNDAEGDAALQPLKERYELQHARLFEFYADCSSVKYLTTLVTIPKLPVDAPDVFLINDVDESKEIKFKKREPSVTPARTPARTPTPTPPVVAEPAISPRPVSQRTTSTPTGYLQTMPTGATTGMMIPTATGAANAIFPQATAQMQPDFWANQQAQFANEQNRLEQERVQQLQQQQAQQELFQQQLQKAQQDMMNMQLQQQNQHQNDLIALTNQYEKDQALLQQYDQRVQQLESEITTMDSTASKQLANKDEQLTALQDQLDVWERKYESLAKLYSQLRQEHLNLLPRFKKLQLKVNSAQESIQKKEQLEHKLKQKDLQMAELVKDRDRARLELERSINNAEADSAAATAAAETMTQDKMNPILDAILESGINTIQESVYNLDSPLSWSGPLTPPTFLLSLLESTSENATEFATSFNNLIVDGLAHGDQTEVIHCVSDFSTSMATLVTNSKAYAVTTLPQEQSDQILTLVKRCAREAQYFFEDLMSENLNQVGDEEKTDIVINANVDMQEKLQELSLAIEPLLNIQSVKSNKETNPHSELVATADKIVKSSEHLRVDVPKPLLSLALMIIDAVVALVKAAIQCQNEIATTTSIPLNQFYLKNSRWTEGLISAAKAVAGATNVLITTASKLITSEDNENTSPEQFIVASKEVAASTIQLVAASRVKTSIHSKAQDKLEHCSKDVTDACRSLGNHVMGMIEDDHSTSQQQQPLDFTSEHTLKTAEMEQQVEILKLEQSLSNARKRLGEIRRHAYYNQDDD

target: T1, Sla1 (S. cerevisiae); experiment: split reporter; details: not given

binding, binds:
B1, B2, B3

Target: T2, Sla1 (S. cerevisiae), P32790
Experiment: split reporter
Details: remark: other sources report otherwise

binding, binds:
B4, B5, B6
